Reference: patent US20250034266A1
These are yes or no findings as the source states them, for the method shown. Some entries that bind do so weakly or less than the wild type.

Sequences of proteins named here, by UniProt entry; tags and fusion partners are left off. A change or cut given only in a name is not applied to a line headed by its entry. A line that says so, or that is headed by a name, gives the form on record, which may keep a tag or linker.
UniProt P51685: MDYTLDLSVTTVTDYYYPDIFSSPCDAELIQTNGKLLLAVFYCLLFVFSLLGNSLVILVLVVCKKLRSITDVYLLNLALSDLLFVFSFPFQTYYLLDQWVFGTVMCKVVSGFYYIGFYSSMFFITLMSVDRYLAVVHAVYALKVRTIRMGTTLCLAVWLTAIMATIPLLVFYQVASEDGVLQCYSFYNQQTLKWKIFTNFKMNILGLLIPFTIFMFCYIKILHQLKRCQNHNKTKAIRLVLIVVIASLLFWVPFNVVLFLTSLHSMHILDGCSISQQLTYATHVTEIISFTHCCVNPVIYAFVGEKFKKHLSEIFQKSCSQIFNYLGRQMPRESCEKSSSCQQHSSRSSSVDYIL
cynomolgus CCR8 (G7NYJ2, form named): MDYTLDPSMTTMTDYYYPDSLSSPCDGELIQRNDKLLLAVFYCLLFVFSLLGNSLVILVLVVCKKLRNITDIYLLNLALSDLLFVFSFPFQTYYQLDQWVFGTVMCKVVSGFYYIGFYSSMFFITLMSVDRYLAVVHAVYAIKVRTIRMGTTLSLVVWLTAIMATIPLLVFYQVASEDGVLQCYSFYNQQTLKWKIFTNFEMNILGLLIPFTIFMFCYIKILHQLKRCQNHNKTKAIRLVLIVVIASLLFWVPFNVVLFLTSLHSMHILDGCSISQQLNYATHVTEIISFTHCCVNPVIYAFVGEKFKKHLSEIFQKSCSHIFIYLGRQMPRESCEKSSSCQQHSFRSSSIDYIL

What was measured:
human CCR8 (human) [1] = molecular target: human CCR8 (human) (UniProt P51685); assay: FACS, purified murine antibody on CHO-K1- and HEK293-human CCR8 cells
[2] = molecular target: cynomolgus CCR8 (cynomolgus) (UniProt G7NYJ2); assay: FACS, hybridoma supernatant on cynomolgus CCR8 cells
human CCR8 (human) [3] = molecular target: human CCR8 (human) (UniProt P51685); assay: FACS, hybridoma supernatant on human CCR8 cells
[4] = molecular target: cynomolgus CCR8 (cynomolgus) (UniProt G7NYJ2); assay: FACS, purified murine antibody on HEK293-cynomolgus CCR8 cells
human CCR8 (human) [5] = molecular target: human CCR8 (human) (UniProt P51685); assay: FACS on HEK293-human CCR8 cells

Measured: binding

B1: 153D4G2 (antibody, V domains shown)
VH: EVQLVESGGGLVQPKGSLKLSCAASGFTFNTYAMNWVRQAPGKGLEWVARIRSKSNFYATYYADSVKDRFTISRDDSQDMLYLQMNILKTEDTAIYYCVRGRDYGSSYAMDYWGQGTSVTVSS
VL: DIVMTQAAPSVPVTPGESVSISCRSSKSLLHSNGNTYLYWFLQRPGQSPQLLIYRMSNLASGVPDRFSGSGSGTAFTLRISRVEAEDVGVYYCMQHLEYPLTFGAGTKLELK
not listed: human CCR8 (human) [5]
binds: all other assays above

B2: CM348 (antibody, V domains shown)
VH: QVQLVETGGGLVRPGNSLKLSCVTSGFSFSNYRMHWLRQPPGKRLEWIAVITVKSDNYGANYAESVKGRFTISRDDSKSSVYLQMNRLREEDTATYYCSSLGRVAYWGQGTLVTVSA
VL: DIVMTQSQKFMFTSVGDRVSVTCKASQNVDTNVVWYQQKPGQSPKALIYSASSRYSGVPDRFTGSGSGTDFTLTISNVQSEDLAEYFCQQHNSFPLTFGAGTKLELI
binds: human CCR8 (human) [5]

B3: 234G9C12 (antibody, V domains shown)
VH: DVQLQESGPGLVKPSQSLSLTCSVTGYSITSGYYWNWIRQFPGNKLEWMGYTSYDGSNNYNPSFKNRISITRDISKNQFFLKLNSVTTEDTATYYCARQIGLRRGAMDHWGQGTSVTVSS
VL: DIQMTQSSSYLSVSLGGRVTITCKASDHINNWLAWYQQKPGNAPRLLISGSTSLRAGVASRFSGSGSGKDYTLTITSLQTEDVATYYCQQYWGIPFTFGGGTKLEIK
not listed: human CCR8 (human) [5]
binds: all other assays above
